# Results from one PubChem assay

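Malaria parasite (P. falciparum) lines kept in red blood cells; parasite DNA is measured by SYBR Green fluorescence after lysis, 72 h after compound addition.
Each compound was titrated across a series from about 0.000037 to 29 µM.
The number is the fitted AC50, the concentration giving a half-maximal change in signal; a lower value means higher potency, whether the curve shows a decrease or an increase.
Calls follow the curve class and fit quality: every row here is inconclusive, covering signal-raising curves and weak, poorly fitted, partial or highest-dose-only inhibition curves.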

Values are in nM.
All entries here are filed as inconclusive.
These entries are mostly ones the record files as inconclusive; other results of the assay are not listed here.
Potencies fitted to partial, single-point or poorly fitting curves are rough.
Some entries filed as inconclusive have a full curve.

{"compound": "COc1ccc(CN2CCN(C(c3ccc(F)cc3)c3ccc(F)cc3)CC2)c(OC)c1OC", "setting": "CP266", "potency (nM)": "19011", "curve as filed": "inhibitor, single point"}
{"compound": "COc1ccc(CN2CCN(C(c3ccc(F)cc3)c3ccc(F)cc3)CC2)c(OC)c1OC", "setting": "CP297", "potency (nM)": "15101", "curve as filed": "inhibitor, single point"}
{"compound": "COc1ccc(CN2CCN(C(c3ccc(F)cc3)c3ccc(F)cc3)CC2)c(OC)c1OC", "setting": "CP268", "potency (nM)": "19011", "curve as filed": "inhibitor, single point"}
{"compound": "COc1ccc(CN2CCN(C(c3ccc(F)cc3)c3ccc(F)cc3)CC2)c(OC)c1OC", "setting": "CP315", "potency (nM)": "19011", "curve as filed": "inhibitor, single point"}
{"compound": "CC12NC(Cc3ccccc31)c1ccccc12", "stereo": "stereo not shown", "setting": "TAB113", "potency (nM)": "7943", "curve as filed": "inhibitor, partial curve"}
{"compound": "CC12NC(Cc3ccccc31)c1ccccc12", "stereo": "stereo not shown", "setting": "DIV14", "potency (nM)": "3793", "curve as filed": "inhibitor, full curve"}
{"compound": "CC12NC(Cc3ccccc31)c1ccccc12", "stereo": "stereo not shown", "setting": "CP203", "potency (nM)": "19011", "curve as filed": "inhibitor, single point"}
{"compound": "CC12NC(Cc3ccccc31)c1ccccc12", "stereo": "stereo not shown", "setting": "CP335", "potency (nM)": "8492", "curve as filed": "inhibitor, partial curve"}
{"compound": "CC12NC(Cc3ccccc31)c1ccccc12", "stereo": "stereo not shown", "setting": "SC27B", "potency (nM)": "11220", "curve as filed": "inhibitor, single point"}
{"compound": "CC12NC(Cc3ccccc31)c1ccccc12", "stereo": "stereo not shown", "setting": "ICS", "potency (nM)": "1259", "curve as filed": "inhibitor, partial curve, poor fit"}
{"compound": "CC12NC(Cc3ccccc31)c1ccccc12", "stereo": "stereo not shown", "setting": "TAB165", "potency (nM)": "11220", "curve as filed": "inhibitor, partial curve, poor fit"}
{"compound": "CC12NC(Cc3ccccc31)c1ccccc12", "stereo": "stereo not shown", "setting": "GB4", "potency (nM)": "5358", "curve as filed": "inhibitor, partial curve, poor fit"}
{"compound": "CC12NC(Cc3ccccc31)c1ccccc12", "stereo": "stereo not shown", "setting": "DIV17", "potency (nM)": "5358", "curve as filed": "inhibitor, partial curve"}
{"compound": "CC12NC(Cc3ccccc31)c1ccccc12", "stereo": "stereo not shown", "setting": "DFO2036", "potency (nM)": "8912", "curve as filed": "inhibitor, partial curve, poor fit"}
{"compound": "CC12NC(Cc3ccccc31)c1ccccc12", "stereo": "stereo not shown", "setting": "P94_40", "potency (nM)": "14125", "curve as filed": "inhibitor, partial curve, poor fit"}
{"compound": "O=S1(=O)c2cccc3cccc(c23)N1CCCN1CCN(c2ccc(F)cc2)CC1", "setting": "P94_40", "potency (nM)": "12589", "curve as filed": "inhibitor, single point"}
{"compound": "O=S1(=O)c2cccc3cccc(c23)N1CCCN1CCN(c2ccc(F)cc2)CC1", "setting": "DIV14", "potency (nM)": "6012", "curve as filed": "inhibitor, partial curve, poor fit"}
{"compound": "O=S1(=O)c2cccc3cccc(c23)N1CCCN1CCN(c2ccc(F)cc2)CC1", "setting": "DIV17", "potency (nM)": "11995", "curve as filed": "inhibitor, partial curve, poor fit"}
{"compound": "O=S1(=O)c2cccc3cccc(c23)N1CCCN1CCN(c2ccc(F)cc2)CC1", "setting": "CP291", "potency (nM)": "0.5", "curve as filed": "inhibitor"}
{"compound": "O=S1(=O)c2cccc3cccc(c23)N1CCCN1CCN(c2ccc(F)cc2)CC1", "setting": "PC26", "potency (nM)": "13459", "curve as filed": "inhibitor, partial curve, poor fit"}
{"compound": "O=S1(=O)c2cccc3cccc(c23)N1CCCN1CCN(c2ccc(F)cc2)CC1", "setting": "ICS", "potency (nM)": "17782", "curve as filed": "inhibitor, single point"}

For reference, 2 entries once more:

Compound	setting	potency (nM)	curve as filed
CC12NC(Cc3ccccc31)c1ccccc12 (stereo not shown)	TAB113	7943	inhibitor, partial curve
CC12NC(Cc3ccccc31)c1ccccc12 (stereo not shown)	SC27B	11220	inhibitor, single point

Source: PubChem BioAssay AID504749 (NCATS, 2011).